In the supplement of paper PMC10849652:
Some of the results follow.

Protein sequences, listed by entry. Tags and fused reporters are not part of them. Lines headed by an entry give the natural chain unless they say otherwise; changes in a name come on top.
UniProt Q9HCM4: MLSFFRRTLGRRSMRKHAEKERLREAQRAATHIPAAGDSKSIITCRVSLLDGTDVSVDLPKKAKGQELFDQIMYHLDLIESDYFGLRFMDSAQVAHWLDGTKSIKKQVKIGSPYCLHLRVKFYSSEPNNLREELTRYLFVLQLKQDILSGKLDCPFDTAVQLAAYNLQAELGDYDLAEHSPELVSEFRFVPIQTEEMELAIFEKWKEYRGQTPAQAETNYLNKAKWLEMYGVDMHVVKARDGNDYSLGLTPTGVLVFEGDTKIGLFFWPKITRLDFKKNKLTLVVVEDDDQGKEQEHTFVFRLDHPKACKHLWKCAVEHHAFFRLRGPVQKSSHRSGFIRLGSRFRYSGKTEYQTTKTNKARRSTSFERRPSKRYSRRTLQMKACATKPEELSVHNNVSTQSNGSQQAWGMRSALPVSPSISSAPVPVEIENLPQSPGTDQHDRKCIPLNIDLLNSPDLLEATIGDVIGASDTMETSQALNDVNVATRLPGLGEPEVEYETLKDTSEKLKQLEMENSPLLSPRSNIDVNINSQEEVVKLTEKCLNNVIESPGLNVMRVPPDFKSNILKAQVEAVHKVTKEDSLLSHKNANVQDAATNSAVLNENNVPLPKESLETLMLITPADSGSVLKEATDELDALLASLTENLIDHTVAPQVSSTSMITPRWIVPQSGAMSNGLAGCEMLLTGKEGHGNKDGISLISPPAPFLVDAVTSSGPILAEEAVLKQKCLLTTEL
UniProt Q8IV48: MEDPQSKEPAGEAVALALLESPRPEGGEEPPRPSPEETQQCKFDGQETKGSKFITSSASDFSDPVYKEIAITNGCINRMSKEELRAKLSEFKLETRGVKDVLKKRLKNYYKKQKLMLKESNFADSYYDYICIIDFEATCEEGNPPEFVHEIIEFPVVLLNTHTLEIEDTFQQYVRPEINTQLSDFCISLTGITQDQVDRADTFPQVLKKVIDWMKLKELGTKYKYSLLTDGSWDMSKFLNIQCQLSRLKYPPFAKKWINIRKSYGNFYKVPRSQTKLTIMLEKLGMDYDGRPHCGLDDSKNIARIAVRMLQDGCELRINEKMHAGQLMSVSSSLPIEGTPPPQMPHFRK
UniProt Q6NZ36: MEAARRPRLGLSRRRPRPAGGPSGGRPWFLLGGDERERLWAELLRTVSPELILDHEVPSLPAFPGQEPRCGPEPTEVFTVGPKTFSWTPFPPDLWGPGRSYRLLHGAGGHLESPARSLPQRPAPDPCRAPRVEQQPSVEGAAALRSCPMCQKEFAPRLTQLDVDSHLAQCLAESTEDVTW
UniProt Q9BQ89: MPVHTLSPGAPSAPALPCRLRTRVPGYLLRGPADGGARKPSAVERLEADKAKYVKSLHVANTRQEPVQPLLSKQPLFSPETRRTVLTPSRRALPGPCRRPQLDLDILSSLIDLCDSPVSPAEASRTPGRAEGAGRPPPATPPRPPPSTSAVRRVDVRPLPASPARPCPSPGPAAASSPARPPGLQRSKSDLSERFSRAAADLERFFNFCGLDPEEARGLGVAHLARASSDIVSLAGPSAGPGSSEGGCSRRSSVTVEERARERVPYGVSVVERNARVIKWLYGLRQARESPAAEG
UniProt Q8N612: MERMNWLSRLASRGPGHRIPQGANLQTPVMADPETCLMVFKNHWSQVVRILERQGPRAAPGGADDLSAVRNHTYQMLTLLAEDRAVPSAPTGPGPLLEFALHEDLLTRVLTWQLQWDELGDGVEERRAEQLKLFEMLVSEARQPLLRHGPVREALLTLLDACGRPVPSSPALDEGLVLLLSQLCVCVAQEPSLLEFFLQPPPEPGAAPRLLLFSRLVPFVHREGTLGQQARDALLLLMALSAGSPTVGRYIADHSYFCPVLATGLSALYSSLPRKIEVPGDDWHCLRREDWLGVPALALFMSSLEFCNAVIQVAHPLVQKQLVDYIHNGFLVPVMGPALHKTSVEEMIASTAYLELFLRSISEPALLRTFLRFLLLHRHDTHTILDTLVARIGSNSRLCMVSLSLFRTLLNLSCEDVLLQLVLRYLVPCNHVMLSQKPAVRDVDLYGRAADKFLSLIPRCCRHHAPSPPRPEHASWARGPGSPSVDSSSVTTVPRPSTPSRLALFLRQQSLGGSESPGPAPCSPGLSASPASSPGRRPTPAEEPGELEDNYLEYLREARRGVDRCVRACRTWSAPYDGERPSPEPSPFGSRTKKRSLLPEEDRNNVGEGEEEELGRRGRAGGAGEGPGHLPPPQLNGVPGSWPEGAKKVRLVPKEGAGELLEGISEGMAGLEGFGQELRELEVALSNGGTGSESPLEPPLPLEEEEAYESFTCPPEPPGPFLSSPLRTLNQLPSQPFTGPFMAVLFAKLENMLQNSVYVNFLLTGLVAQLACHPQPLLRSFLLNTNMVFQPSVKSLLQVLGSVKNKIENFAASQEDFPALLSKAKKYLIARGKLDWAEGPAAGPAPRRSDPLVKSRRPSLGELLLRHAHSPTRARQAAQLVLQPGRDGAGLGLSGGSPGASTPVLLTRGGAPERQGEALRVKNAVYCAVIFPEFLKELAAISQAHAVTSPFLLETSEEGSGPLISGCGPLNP
UniProt Q5T8I3: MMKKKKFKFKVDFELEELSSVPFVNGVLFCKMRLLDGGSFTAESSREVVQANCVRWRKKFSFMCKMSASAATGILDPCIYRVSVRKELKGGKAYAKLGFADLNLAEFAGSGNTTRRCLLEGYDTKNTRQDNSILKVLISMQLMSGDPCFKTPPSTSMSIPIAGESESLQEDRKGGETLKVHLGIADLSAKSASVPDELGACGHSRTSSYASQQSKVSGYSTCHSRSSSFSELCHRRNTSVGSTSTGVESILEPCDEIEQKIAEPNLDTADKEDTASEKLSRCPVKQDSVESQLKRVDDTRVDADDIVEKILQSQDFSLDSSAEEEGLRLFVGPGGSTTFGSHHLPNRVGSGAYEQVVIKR
UniProt Q5VUB5: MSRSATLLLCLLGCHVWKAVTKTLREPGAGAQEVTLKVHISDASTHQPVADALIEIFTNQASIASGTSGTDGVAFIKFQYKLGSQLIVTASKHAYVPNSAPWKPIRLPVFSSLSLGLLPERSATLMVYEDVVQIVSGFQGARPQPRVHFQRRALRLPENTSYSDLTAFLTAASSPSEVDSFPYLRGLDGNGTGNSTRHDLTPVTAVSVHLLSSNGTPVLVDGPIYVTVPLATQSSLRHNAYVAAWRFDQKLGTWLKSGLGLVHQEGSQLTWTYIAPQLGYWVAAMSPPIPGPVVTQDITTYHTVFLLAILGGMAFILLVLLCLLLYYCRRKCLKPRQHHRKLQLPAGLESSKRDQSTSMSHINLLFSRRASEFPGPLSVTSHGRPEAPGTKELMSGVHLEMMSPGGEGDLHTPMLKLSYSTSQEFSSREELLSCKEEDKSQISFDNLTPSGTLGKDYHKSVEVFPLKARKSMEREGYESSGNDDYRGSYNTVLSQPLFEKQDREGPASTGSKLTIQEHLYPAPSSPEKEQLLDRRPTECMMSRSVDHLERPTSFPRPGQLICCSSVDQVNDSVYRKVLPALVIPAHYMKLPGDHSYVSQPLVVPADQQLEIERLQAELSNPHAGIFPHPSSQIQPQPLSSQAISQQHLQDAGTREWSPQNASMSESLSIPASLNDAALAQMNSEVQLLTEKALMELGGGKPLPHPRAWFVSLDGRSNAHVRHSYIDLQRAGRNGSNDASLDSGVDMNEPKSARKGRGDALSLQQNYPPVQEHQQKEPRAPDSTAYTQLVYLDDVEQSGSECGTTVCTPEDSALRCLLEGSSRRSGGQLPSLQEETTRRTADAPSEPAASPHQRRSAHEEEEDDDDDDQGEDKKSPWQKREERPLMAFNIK
UniProt Q9H098: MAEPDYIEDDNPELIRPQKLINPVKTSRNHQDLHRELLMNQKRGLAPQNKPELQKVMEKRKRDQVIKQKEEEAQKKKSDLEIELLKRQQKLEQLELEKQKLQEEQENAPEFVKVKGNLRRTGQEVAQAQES
UniProt Q6P179: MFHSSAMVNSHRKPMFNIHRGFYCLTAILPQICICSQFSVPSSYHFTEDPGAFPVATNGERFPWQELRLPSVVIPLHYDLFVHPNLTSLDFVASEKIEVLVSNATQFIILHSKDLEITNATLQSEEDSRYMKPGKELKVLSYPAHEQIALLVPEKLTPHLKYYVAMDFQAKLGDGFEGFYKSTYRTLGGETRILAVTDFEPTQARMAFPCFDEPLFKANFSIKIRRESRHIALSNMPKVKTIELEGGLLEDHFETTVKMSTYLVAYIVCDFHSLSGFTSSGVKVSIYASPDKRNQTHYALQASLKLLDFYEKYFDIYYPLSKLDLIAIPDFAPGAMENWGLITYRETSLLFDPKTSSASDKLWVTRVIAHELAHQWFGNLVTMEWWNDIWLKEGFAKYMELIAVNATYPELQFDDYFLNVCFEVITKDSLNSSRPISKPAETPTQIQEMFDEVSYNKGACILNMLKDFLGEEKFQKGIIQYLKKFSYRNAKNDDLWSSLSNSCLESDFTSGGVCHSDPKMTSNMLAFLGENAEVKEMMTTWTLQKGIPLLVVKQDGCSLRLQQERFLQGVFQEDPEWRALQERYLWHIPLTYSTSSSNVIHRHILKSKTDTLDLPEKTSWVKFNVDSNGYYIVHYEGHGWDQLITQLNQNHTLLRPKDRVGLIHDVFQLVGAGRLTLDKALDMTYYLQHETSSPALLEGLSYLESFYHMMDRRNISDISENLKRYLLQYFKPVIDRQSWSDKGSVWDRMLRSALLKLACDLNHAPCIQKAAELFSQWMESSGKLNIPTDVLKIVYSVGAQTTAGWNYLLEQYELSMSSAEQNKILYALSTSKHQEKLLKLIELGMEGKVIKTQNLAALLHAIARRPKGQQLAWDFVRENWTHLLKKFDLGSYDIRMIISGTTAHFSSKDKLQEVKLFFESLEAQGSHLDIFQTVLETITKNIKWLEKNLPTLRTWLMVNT
UniProt Q96EK7: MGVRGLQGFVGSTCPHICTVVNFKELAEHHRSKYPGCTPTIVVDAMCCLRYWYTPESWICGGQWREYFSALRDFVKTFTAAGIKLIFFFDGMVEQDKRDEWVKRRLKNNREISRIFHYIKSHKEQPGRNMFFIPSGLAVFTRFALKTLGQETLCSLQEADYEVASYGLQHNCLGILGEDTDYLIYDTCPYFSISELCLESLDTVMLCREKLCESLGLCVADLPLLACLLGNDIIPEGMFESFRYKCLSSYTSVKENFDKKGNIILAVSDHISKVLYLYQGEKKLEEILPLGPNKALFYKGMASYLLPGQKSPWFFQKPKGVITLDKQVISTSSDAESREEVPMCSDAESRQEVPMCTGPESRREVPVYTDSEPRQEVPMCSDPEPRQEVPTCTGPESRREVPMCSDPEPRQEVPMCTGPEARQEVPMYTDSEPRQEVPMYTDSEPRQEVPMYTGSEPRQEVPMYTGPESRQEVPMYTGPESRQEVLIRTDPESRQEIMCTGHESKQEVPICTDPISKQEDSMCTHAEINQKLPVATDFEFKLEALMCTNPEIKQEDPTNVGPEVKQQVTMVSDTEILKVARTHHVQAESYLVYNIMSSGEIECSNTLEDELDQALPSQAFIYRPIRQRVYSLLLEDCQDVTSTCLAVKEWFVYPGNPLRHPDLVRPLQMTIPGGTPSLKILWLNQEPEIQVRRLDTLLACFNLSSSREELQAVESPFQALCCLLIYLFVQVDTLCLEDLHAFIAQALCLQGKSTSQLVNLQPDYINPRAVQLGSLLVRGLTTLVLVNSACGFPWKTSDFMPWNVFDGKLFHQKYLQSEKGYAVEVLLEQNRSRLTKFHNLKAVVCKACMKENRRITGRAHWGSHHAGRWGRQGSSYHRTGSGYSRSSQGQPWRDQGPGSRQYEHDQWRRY
UniProt O95718: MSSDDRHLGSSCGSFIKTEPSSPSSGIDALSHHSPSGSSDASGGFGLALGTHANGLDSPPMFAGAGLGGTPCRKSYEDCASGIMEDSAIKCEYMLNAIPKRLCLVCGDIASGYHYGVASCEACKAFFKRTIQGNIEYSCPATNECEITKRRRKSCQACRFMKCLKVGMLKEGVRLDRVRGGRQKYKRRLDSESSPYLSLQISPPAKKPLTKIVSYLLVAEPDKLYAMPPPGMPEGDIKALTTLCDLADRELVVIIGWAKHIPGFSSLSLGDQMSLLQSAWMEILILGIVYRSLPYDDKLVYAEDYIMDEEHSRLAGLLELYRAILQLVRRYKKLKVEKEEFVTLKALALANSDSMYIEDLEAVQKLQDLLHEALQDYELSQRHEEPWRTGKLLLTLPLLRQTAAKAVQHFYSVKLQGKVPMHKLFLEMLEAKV
UniProt P05413, whole entry, looked up: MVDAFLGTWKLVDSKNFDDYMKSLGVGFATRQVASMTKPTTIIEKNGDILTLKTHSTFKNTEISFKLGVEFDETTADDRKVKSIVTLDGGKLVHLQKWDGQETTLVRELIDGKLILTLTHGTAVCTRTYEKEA
UniProt Q7Z309: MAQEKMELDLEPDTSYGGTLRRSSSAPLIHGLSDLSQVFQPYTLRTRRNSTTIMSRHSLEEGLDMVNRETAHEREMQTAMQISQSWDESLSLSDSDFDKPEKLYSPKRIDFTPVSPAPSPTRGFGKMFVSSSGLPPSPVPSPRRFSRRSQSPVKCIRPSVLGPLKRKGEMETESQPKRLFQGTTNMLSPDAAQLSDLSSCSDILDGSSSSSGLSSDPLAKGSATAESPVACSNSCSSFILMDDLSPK

Each target was assayed with O=C1NC(=O)C(c2cnc3ccccn23)=C1c1cn2c3c(cc(F)cc13)CN(C(=O)N1CCCCC1)CC2 (assay: log2 fold change, soluble protein after heating vs DMSO (PISA); higher = thermal stabilisation; K562 cells, 10 uM, 30 min; active = over 0.2 and 3.5 SD of the protein, either way, in both replicates (recomputed)).
Method in brief: (§1)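 Quantification of soluble protein used TMTpro 16plex LC-MS/MS, with channel sums equalised. Samples were the supernatant after 21,000xg for 90 min of pooled aliquots from K562 cells (2×10^6 cells/mL) treated with 10 μM compound for 30 min, heated for 3 min over 48°C-58°C, and extracted in PBS with 0.5% NP-40 at 4°C. Values, from duplicates, describe thermal stability against control samples on a log2 fold-change scale.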

log2 fold change, inactive:
EPB41L5 (UniProt Q9HCM4) 0.017, FAM117B (UniProt Q6P1L5) -0.144, ERI1 (UniProt Q8IV48) 0.276, FAAP20 isoform 2 (UniProt Q6NZ36) 0.032, EPHX2 (UniProt E5RI53) -0.058, FAM110A (UniProt Q9BQ89) -0.15, EPS8L1 (UniProt Q8TE68) 0.093, FAM114A1 (UniProt Q8IWE2) 0.233, FAM160A2 isoform 2 (UniProt Q8N612) 0.026, FAM102B (UniProt Q5T8I3) 0.02, FAM171A1 (UniProt Q5VUB5) -0.217, FAM107B isoform 2 (UniProt Q9H098) -0.075, ERAP2 (UniProt Q6P179) 0.024

Each target was assayed with c1cc(OCCN2CCCCC2)cc(-c2n[nH]c3ccc(-c4nnc[nH]4)cc23)c1 in the same assay as above.
Method in brief: as §1

log2 fold change, inactive:
FAM117B (UniProt Q6P1L5) 0.105, FAAP20 isoform 2 (UniProt Q6NZ36) -0.167, FAM120B (UniProt Q96EK7) -0.001, FAM160B2 (UniProt Q86V87) -0.074, ESRRB isoform 1 (UniProt O95718) -0.038, FAM160A2 isoform 2 (UniProt Q8N612) 0.068, F13A1 (UniProt P00488) -0.068, FABP3 (UniProt P05413) -0.055, FAM122B isoform 2 (UniProt Q7Z309) -0.054, ETF1 isoform 2 (UniProt P62495) -0.439
